According to PMC7862700:
The list shows a part of the results, in another mix than the full data. At the low end of the ranking, values are background and their order means little.

Sequences of proteins named here, by UniProt entry; tags and fusion partners are left off. A change or cut given only in a name is not applied to a line headed by its entry.
UniProt Q01892: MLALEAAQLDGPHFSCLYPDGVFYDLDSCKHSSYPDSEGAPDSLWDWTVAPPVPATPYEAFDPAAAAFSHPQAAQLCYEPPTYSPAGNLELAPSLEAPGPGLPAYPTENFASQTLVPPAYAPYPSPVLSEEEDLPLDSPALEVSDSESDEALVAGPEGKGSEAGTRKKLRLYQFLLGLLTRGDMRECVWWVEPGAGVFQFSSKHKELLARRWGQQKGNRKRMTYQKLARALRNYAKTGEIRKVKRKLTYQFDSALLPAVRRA
UniProt P41161: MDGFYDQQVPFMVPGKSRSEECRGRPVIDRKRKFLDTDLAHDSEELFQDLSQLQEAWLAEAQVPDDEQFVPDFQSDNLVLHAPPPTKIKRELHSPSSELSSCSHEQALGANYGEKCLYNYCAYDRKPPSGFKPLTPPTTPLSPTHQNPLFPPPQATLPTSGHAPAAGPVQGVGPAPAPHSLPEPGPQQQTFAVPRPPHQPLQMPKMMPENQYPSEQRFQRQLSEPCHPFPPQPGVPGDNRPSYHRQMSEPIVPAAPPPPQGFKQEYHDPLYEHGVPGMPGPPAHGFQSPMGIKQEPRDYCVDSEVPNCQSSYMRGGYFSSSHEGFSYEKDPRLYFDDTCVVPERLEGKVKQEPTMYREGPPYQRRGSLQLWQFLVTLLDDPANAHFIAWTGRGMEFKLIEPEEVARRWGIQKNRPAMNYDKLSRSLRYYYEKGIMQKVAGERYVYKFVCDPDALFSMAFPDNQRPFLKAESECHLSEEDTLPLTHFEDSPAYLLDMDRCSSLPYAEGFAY
UniProt Q99607: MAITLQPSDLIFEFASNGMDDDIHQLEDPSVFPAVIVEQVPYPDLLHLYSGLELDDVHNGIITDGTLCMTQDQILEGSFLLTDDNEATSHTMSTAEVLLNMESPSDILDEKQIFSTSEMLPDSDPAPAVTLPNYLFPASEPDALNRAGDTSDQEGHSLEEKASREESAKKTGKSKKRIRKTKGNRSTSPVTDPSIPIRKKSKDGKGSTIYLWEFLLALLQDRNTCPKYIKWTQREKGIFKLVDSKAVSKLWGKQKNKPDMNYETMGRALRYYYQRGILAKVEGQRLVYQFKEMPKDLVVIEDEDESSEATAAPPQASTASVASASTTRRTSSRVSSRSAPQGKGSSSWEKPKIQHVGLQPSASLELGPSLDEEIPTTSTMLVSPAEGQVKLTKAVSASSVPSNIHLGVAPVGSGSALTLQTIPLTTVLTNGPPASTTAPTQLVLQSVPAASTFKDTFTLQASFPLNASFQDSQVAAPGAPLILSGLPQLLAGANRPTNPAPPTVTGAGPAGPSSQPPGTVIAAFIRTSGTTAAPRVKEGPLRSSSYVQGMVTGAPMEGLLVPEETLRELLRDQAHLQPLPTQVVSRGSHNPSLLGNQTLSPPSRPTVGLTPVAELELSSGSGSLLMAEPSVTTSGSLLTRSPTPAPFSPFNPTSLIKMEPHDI

Assays:
Assay in all cases: DAPPL (digital affinity profiling via proximity ligation, sequencing)
Conditions in all cases: 10 mM Tris-HCl pH 7.5, 50 mM NaCl, 1 mM DTT, 4% glycerol, room temperature, 30 min; GST-TFs on glutathione beads, 16-mer random dsDNA library, 0.1% …; high values mean tight binding; double strand, one strand shown; scale: fold enrichment (6-mer frequency, TF over GST control)
FLI1 = target: T1, FLI1 (UniProt Q01543)
T1 sequence: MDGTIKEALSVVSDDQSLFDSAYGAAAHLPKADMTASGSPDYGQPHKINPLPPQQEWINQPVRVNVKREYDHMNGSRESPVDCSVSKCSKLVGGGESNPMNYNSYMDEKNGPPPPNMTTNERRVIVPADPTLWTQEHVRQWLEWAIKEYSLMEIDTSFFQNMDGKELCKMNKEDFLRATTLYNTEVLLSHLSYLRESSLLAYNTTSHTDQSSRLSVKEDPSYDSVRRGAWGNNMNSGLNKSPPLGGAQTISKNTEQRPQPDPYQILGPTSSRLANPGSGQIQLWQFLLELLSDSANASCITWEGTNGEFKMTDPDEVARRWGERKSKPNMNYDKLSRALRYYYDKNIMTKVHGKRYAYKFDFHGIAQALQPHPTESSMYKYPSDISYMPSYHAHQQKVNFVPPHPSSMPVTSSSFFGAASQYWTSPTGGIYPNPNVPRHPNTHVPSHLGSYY

EHF = target: T2, EHF (UniProt Q9NZC4)
T2 sequence: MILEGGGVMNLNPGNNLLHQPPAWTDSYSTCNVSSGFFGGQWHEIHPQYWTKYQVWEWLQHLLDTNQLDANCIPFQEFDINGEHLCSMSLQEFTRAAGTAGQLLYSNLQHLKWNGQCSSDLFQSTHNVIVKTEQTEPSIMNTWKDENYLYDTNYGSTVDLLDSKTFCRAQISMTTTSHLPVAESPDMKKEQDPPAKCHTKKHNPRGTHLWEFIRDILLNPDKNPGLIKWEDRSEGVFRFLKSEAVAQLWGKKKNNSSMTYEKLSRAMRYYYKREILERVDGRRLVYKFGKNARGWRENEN

SPIB = SPIB (UniProt Q01892)
ETV5 = ETV5 (UniProt P41161)
ELF4 = ELF4 (UniProt Q99607)
ETV2 = target: T3, ETV2 (UniProt O00321)
T3 sequence: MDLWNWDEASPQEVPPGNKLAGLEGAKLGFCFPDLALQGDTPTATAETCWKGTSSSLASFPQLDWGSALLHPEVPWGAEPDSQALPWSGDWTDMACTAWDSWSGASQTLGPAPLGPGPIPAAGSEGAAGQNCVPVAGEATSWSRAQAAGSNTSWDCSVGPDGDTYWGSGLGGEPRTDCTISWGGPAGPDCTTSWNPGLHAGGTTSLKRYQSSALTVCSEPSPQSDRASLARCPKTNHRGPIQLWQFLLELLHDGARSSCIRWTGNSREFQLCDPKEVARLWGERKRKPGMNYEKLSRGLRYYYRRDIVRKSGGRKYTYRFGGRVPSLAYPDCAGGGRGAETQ

ETV3L = target: T4, ETV3L (UniProt Q6ZN32)
T4 sequence: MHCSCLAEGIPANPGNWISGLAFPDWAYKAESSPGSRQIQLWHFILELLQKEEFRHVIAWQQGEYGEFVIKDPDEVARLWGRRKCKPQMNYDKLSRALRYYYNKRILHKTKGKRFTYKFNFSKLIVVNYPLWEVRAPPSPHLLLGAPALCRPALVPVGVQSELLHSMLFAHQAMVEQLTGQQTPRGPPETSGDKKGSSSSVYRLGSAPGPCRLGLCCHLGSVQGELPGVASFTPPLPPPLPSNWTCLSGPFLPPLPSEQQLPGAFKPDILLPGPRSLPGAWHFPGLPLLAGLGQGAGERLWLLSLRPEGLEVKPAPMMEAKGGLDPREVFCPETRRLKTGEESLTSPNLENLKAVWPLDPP

| Sequence | binding signal (FLI1) | binding signal (EHF) | binding signal (SPIB) | binding signal (ETV5) | binding signal (ELF4) | binding signal (ETV2) | binding signal (ETV3L) |
| --- | --- | --- | --- | --- | --- | --- | --- |
| GAGTCC | 0.411 | 0.397 | 0.369 | 0.393 | 0.398 | 0.406 | 0.425 |
| GGGTGG | 0.776 | 0.814 | 0.777 | 0.894 | 0.735 | 0.698 | 0.805 |
| GCGAGC | 0.881 | 0.904 | 0.841 | 0.858 | 0.91 | 0.763 | 0.815 |
| AGCGTT | 0.957 | 0.881 | 0.803 | 0.932 | 0.932 | 0.837 | 0.905 |
| CACAGA | 0.904 | 0.873 | 0.848 | 0.849 | 0.944 | 0.943 | 0.838 |
| GACGAA | 0.879 | 0.899 | 0.936 | 0.898 | 0.862 | 0.779 | 0.862 |
| ATCAGT | 0.834 | 0.807 | 0.851 | 0.84 | 0.824 | 0.804 | 0.85 |
| GGATCG | 0.647 | 0.611 | 0.542 | 0.614 | 0.639 | 0.506 | 0.627 |
| TCGGGC | 0.497 | 0.503 | 0.451 | 0.476 | 0.489 | 0.54 | 0.528 |
| GCTTGA | 0.884 | 0.894 | 0.96 | 0.969 | 0.936 | 0.888 | 0.823 |
| AGCCAG | 0.481 | 0.499 | 0.432 | 0.479 | 0.488 | 0.458 | 0.456 |
| ACAGTA | 0.93 | 0.897 | 0.985 | 0.859 | 0.931 | 0.919 | 0.882 |
| GGGCGT | 0.469 | 0.456 | 0.447 | 0.442 | 0.479 | 0.544 | 0.509 |
| GCCGGC | 0.837 | 0.824 | 0.838 | 0.826 | 0.801 | 0.812 | 0.742 |
| TGGAGT | 0.48 | 0.571 | 0.535 | 0.543 | 0.517 | 0.437 | 0.581 |
| TGTGGG | 0.84 | 0.812 | 0.83 | 0.778 | 0.792 | 0.649 | 0.813 |
| GGCCCA | 0.879 | 0.749 | 0.917 | 0.861 | 0.891 | 0.926 | 0.827 |
| AAGCGT | 0.944 | 0.86 | 0.951 | 0.928 | 0.842 | 0.95 | 0.919 |
| GAGGTT | 0.731 | 0.8 | 0.757 | 0.781 | 0.77 | 0.77 | 0.808 |
| ACAGCG | 0.805 | 0.837 | 0.871 | 0.812 | 0.846 | 0.839 | 0.834 |

| Sequence | binding signal (FLI1) | binding signal (EHF) | binding signal (SPIB) | binding signal (ETV5) | binding signal (ELF4) | binding signal (ETV2) | binding signal (ETV3L) |
| --- | --- | --- | --- | --- | --- | --- | --- |
| CTGTCG | 0.572 | 0.558 | 0.566 | 0.584 | 0.56 | 0.608 | 0.494 |
| CAGTCA | 0.489 | 0.473 | 0.485 | 0.47 | 0.506 | 0.455 | 0.487 |
| GAGATC | 0.446 | 0.467 | 0.445 | 0.491 | 0.457 | 0.516 | 0.424 |
| CGTGAG | 0.135 | 0.128 | 0.11 | 0.132 | 0.114 | 0.13 | 0.128 |
| GAGTAC | 0.518 | 0.569 | 0.511 | 0.567 | 0.559 | 0.591 | 0.556 |
| ACGGCG | 0.797 | 0.784 | 0.784 | 0.784 | 0.82 | 0.848 | 0.898 |
| CAGTTA | 0.755 | 0.764 | 0.738 | 0.762 | 0.776 | 0.788 | 0.676 |
| GATGAG | 0.763 | 0.903 | 0.828 | 0.913 | 0.837 | 0.756 | 0.809 |
| AGACAG | 0.508 | 0.509 | 0.535 | 0.536 | 0.524 | 0.493 | 0.518 |
| GATCGT | 0.442 | 0.405 | 0.404 | 0.418 | 0.431 | 0.406 | 0.467 |
| GGCGCA | 0.586 | 0.622 | 0.595 | 0.573 | 0.608 | 0.575 | 0.584 |
| GGGCGA | 0.684 | 0.734 | 0.758 | 0.718 | 0.775 | 0.998 | 0.78 |
| GTCGGT | 0.261 | 0.303 | 0.301 | 0.274 | 0.277 | 0.295 | 0.287 |
| AGATCG | 0.483 | 0.434 | 0.439 | 0.501 | 0.507 | 0.504 | 0.492 |
| AGGAGA | 0.209 | 0.199 | 0.203 | 0.207 | 0.211 | 0.208 | 0.229 |
| GCCGTA | 0.839 | 0.78 | 0.774 | 0.715 | 0.814 | 0.82 | 0.762 |
| AGACGC | 0.708 | 0.662 | 0.641 | 0.679 | 0.705 | 0.693 | 0.717 |
| GTAACG | 0.967 | 0.953 | 0.915 | 0.907 | 0.897 | 1.08 | 0.889 |
| AGAGCG | 0.445 | 0.439 | 0.412 | 0.43 | 0.459 | 0.421 | 0.454 |
| CAGTCG | 0.181 | 0.163 | 0.174 | 0.166 | 0.179 | 0.171 | 0.173 |

Just binding signal (SPIB), binding signal (ELF4) and binding signal (EHF) (three entries from above):
Sequence	binding signal (SPIB)	binding signal (ELF4)	binding signal (EHF)
AGACAG	0.535	0.524	0.509
GATCGT	0.404	0.431	0.405
GGCGCA	0.595	0.608	0.622

Reformatted with bars between the fields: entries from further up.
Sequence | binding signal (FLI1) | binding signal (EHF) | binding signal (SPIB) | binding signal (ETV5) | binding signal (ELF4) | binding signal (ETV2) | binding signal (ETV3L)
GGCGCA | 0.586 | 0.622 | 0.595 | 0.573 | 0.608 | 0.575 | 0.584
GGGCGA | 0.684 | 0.734 | 0.758 | 0.718 | 0.775 | 0.998 | 0.78

Next entries follow.

| Sequence | binding signal (FLI1) | binding signal (EHF) | binding signal (SPIB) | binding signal (ETV5) | binding signal (ELF4) | binding signal (ETV2) | binding signal (ETV3L) |
| --- | --- | --- | --- | --- | --- | --- | --- |
| GACACG | 0.624 | 0.694 | 0.711 | 0.704 | 0.747 | 0.682 | 0.661 |
| GTCCAG | 0.664 | 0.651 | 0.659 | 0.631 | 0.63 | 0.649 | 0.676 |
| AAAGAG | 0.902 | 0.975 | 0.928 | 0.946 | 0.951 | 0.914 | 0.876 |
| CCGGAG | 0.489 | 0.564 | 0.484 | 0.541 | 0.496 | 0.429 | 0.543 |
| GTGTAG | 0.661 | 0.628 | 0.611 | 0.634 | 0.67 | 0.788 | 0.654 |
| TAGGCG | 0.619 | 0.659 | 0.665 | 0.641 | 0.635 | 0.64 | 0.664 |
| GAGACC | 0.223 | 0.222 | 0.22 | 0.2 | 0.22 | 0.174 | 0.202 |
| CCAGAC | 0.712 | 0.672 | 0.636 | 0.698 | 0.721 | 0.68 | 0.691 |
| AGTGCG | 0.852 | 0.924 | 0.781 | 0.911 | 0.877 | 0.881 | 0.854 |
| AACCGT | 0.544 | 0.467 | 0.503 | 0.518 | 0.507 | 0.5 | 0.532 |
| GCCGGG | 0.441 | 0.378 | 0.371 | 0.371 | 0.389 | 0.398 | 0.371 |
| GCCAGG | 0.437 | 0.423 | 0.392 | 0.419 | 0.436 | 0.435 | 0.451 |
| GACCCT | 0.919 | 0.911 | 0.835 | 0.89 | 0.912 | 0.99 | 0.864 |
| GACGGA | 0.494 | 0.565 | 0.535 | 0.554 | 0.457 | 0.517 | 0.483 |
| CGGACG | 0.487 | 0.486 | 0.429 | 0.443 | 0.42 | 0.43 | 0.455 |
| GGCTGT | 0.713 | 0.845 | 0.748 | 0.811 | 0.885 | 0.655 | 0.732 |
| AGGCGT | 0.514 | 0.449 | 0.498 | 0.512 | 0.469 | 0.488 | 0.503 |
| TGGAGG | 0.488 | 0.475 | 0.509 | 0.544 | 0.433 | 0.493 | 0.527 |
| GCAGTA | 0.933 | 0.916 | 0.777 | 0.825 | 0.837 | 0.965 | 0.938 |
| TGAGTG | 0.557 | 0.489 | 0.411 | 0.461 | 0.47 | 0.509 | 0.498 |
